# Measured values from PubChem BioAssay AID1347426 (Functional Genomics Laboratory (NCATS/FGL), 2020).
# In all, about 31,000 sequences went through this assay and about 1,400 (4.5%) were called active.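 How the source made its calls: active means median seed-adjusted z-score above 1 or below -1; inactive means the rest.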 The list shows a part of the results.
# Test: Novel Modifiers of Survival Motor Neuron (SMN) Protein: Gene Identification via Genome-wide siRNA Screen;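 further: luminescence tracks full-length SMN protein made from the SMN2 reporter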
# Details: HEK293T SMN2-luciferase reporter, siRNA knockdown, 72 h; actives lie on both sides
# Procedure, shortened: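 Luciferase signal, proportional to full-length SMN made from an SMN2 cDNA reporter in stable HEK293T cells, was read 72 h after siRNA reverse transfection. Values were expressed as MAD scores after non-targeting-control normalization and log10 conversion; seed analysis flagged off-targets.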
row,Sequence,median seed-adjusted z-score
1,GGGUGGAGGUGUACUAUGATT against LOXL2,inactive: 0.177
2,CAAACUUCAGAGGAGUGUATT against ZNF396,inactive: -0.247
3,GCAGAACUCUCUAAAGGAUTT against VAV1,inactive: 0.215
4,GCAAUGCACCGCUCACUAATT against SMARCC2,inactive: 0.0684
5,GAGUAACCAGUAUCAAGUUTT against DBF4,inactive: -0.319
6,UCCUUUACAUCUACAAGGATT against UNQ2541,inactive: -0.954
7,AAAUCCCUUUGACACCUUUTT against DNAJB1,inactive: 0.466
8,GGGCCGUCAUGAUAGAUCUTT against TUBA8,inactive: -0.0453
9,GGCUUUUGCCCUAUCCAUUTT against WNK4,inactive: 0.385
10,GCAUAGGAUUCAUUGAGUUTT against NME1,inactive: 0.188
11,GGCUAUAAUUGGAGCACGATT against PVR,inactive: -0.324
12,GGUGUUAUCUGAAAAGGUUTT against MAGT1,inactive: -0.0855
13,GUACUUACCUUGUGAGGCATT against VAV3,inactive: 0
14,CCUGACUUCUGCAAACCUATT against CHRFAM7A,inactive: 0.115
15,CCUCCUUCCUGUACACGGATT against PHYHD1,inactive: -0.37
16,CGAUUCAAAAGAUCUGAUATT against MBTD1,inactive: 0.0649
17,GCAUUGCAGAGAACCGACATT against METTL7A,inactive: 0.278
18,GCACCUAGAUUGGAUAGAATT against TRIP12,inactive: 0.16
19,GGAUAGUAUUGGUUGCUAUTT against ADAM22,inactive: 0.292
20,GGUACGAAUGAAUACCUUUTT against PTPN4,inactive: -0.447
21,CUUGCUAUUUUAAUCAACATT against KCNMB4,inactive: 0
22,CAGUCUCAUUUUCCCAUGATT against PCBP2,inactive: 0
23,CUUUCUGUCUAAAUGCGAATT against SERPINB12,inactive: -0.525
24,GCAUGUCUGUCAACGGAUUTT against SV2C,inactive: 0.183
25,GAAGAUCGGAUGUCCGUAATT against DPYS,inactive: -0.288
26,GGCUGAAAGAUAUGCUGAATT against ROM1,inactive: 0.41
27,GCACCAUUGCCUACGAAAATT against LGALS3BP,inactive: 0.187

row,Sequence,median seed-adjusted z-score
1,CCUCCUCAUCUGCAACUCATT against MED25,inactive: -0.589
2,GCACAUGCUUAAAAACGCATT against RPL17,inactive: -0.13
3,CCAAUCUGCAGCGAGCUUATT against STUB1,inactive: 0.202
4,GCACUGUUCGGUAUCCUAUTT against NCAN,inactive: -0.391
5,UAACAAAUCCUAUUAGAUUTT against CTBP2,inactive: -0.241
6,CUUCCACUUUCAUAAGGUUTT against SELO,inactive: 0.0973
7,GGACAUCCUAAAAUCAGAATT against ZNF7,inactive: 0
8,CGCAGAAGUUAACACUUCATT against CD200R1,inactive: 0.0679
9,GAGUCAGUGUCGAUAUGAATT against THEM2,inactive: 0.449
10,GUAACUUCCUAUUCACCAATT against EPAS1,inactive: -0.166
11,CAUCUUUGAUAUCACUAAUTT against CD80,inactive: 0.553
12,GCUGUUUAAGAAGAACCUATT against VPS11,inactive: 0
13,GUAGUACUCGUAUCACGAATT against ACOT12,inactive: 0.0741
14,GACUAAAGAUUCAGAUAAATT against TRIM13,inactive: 0.712
15,ACUUUGCUCCUACUAUUCATT against NEGR1,inactive: 0.194
16,GGCAUUACCUAUCACUUUUTT against KCNG3,inactive: 0.0832
17,GGAAUUCCGUUGACUUGUUTT against MPST,inactive: -0.181
18,GCACAAUCGGACUUAUUCATT against UCHL1,inactive: -0.421
19,CAGUCAAGGUGAAGUACUATT against TRIM32,inactive: 0.109
20,CCGUCCUAGUGCACAUUGATT against H6PD,inactive: 0.069
21,GACCUAUGCUCAGCAACUATT against ZNF695,inactive: -0.358
22,GGAGGAAGUUUUGCAGGAATT against GNL3L,inactive: 0.568
23,GAGAGGAUUUUAUUGAACATT against HSPA12A,inactive: 0.0319
24,ACACGAAAGUCUGCAAAUATT against KLK11,inactive: 0.0411
25,GCUGCUUCAUGUACGGAAATT against AGBL5,inactive: 0.0343
26,CAGCAAGCAUUAUAUCUCATT against KCNK16,inactive: 0
27,AGAAGUCACUCAAUUGUUUTT against CRH,inactive: 0.64

# Quoted at random: two entries already listed
row,Sequence,median seed-adjusted z-score
1,GGGUGGAGGUGUACUAUGATT against LOXL2,inactive: 0.177
27,GCACCAUUGCCUACGAAAATT against LGALS3BP,inactive: 0.187
